Values of other authors, collected in patent publication US6699825B2, “Acidic hard-surface antimicrobial cleaner” (S.C. Johnson & Son, Inc., priority 2001, dated 2004).
Some entries share one result that the patent states for a list of compounds.

Details: in water at 25° C.; cited from earlier work

SMILES | solubility in water
CCCCCOCCO [EGPE, Ethylene Glycol n-Pentyl Ether] | less than 10 percent by weight
OCc1ccccc1 [BA, Benzyl Alcohol] | less than 10 percent by weight
